# Laboratory results published in PubChem BioAssay AID1487 (National Center for Advancing Translational Sciences (NCATS), 2009).
# In all, about 200,000 compounds went through this assay and about 25 (0.01%) were called active. Inconclusive results, whose numbers are uncertain, are shown with a selection of clear calls. Calls come from the whole dose curve; as a rule, active = well fitted inhibition curve with a large enough effect in the signal ratio, with a control signal flat (not every such curve was filed as active); inconclusive = small, poorly fitted or top-dose-only effect, or effect the other way, or a change in a side signal; inactive = flat fitted curve, though single readings scatter; the % refers to the signal ratio. Potencies of inconclusive entries are doubtful fits and often do not repeat.
# Test: qHTS Assay for Modulators of Lamin A Splicing
# Conditions: HeLa LMNA splicing GFP/RFP minigene ratio, 48 h; ratio change, negative = inhibition: at 46.1 µM (top of the series) unless noted
# How it was run: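 Read-out is the ratio of GFP to DsRed2 object intensity, acquired by 488 nm laser-scanning cytometry on HeLa lamin A-EGFP minigene reporter cells. Compound incubation 48 hrs at 37 °C in Opti-MEM with 2% FBS; DMSO 0.5% final.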
# % is set by controls: 0 for no effect and ±100 for the full control effect; potency is the fitted concentration of half-maximal effect.
Compound,"ratio change, negative = inhibition",Potency
O=C(NC(=S)NNC(=O)c1cccs1)c1ccc(Br)o1,inconclusive: -51.2%,–
Cc1onc(-c2ccccc2Cl)c1C(=O)NCc1ccc(N2CCCC2=O)cc1,inactive: 4.14%,–
Clc1ccc(-c2cc(C3CCNCC3)[nH]n2)c(Cl)c1,inconclusive: -23.7% [at 46 µM],–
CCc1ccc(NS(=O)(=O)c2ccc3[nH]cc(C(=O)NCC4CCCO4)c(=O)c3c2)cc1 (stereo unspecified),inconclusive: 10.7%,–
CCOc1cccc2cc(-c3nc4ccc(C(=O)O)cc4[nH]3)c(=O)oc12,inconclusive: 35.8% [at 46 µM],–
CCOc1ccccc1NC1c2ccccc2C(=O)N1c1cccnc1 (stereo unspecified),inactive: 8.69%,–
NS(=O)(=O)c1ccc(NC(=O)c2cccc(Cl)c2)cc1,inconclusive: 6.2% [at 46 µM],–
O=[N+]([O-])c1ccc(Oc2ccc(F)cc2Br)c2ccncc12,inconclusive: -26.9%,–
O=C(C1CCCN(S(=O)(=O)c2cccc3nsnc23)C1)N1CCc2ccccc21 (stereo unspecified),inconclusive: -41.3%,–
Cc1cc(S(=O)(=O)Nc2ccc(-c3ccc(N4CCCCC4)nn3)cc2)c(C)cc1Cl,inconclusive: -18.6% [at 46 µM],–
O=c1c2ccccc2c(C=Nc2ccc(Cl)cn2)c(O)n1-c1cc(Cl)ccc1N1CCOCC1,inactive: -1.08%,–
Cc1cccc(N2CCN(C(c3ccccc3)c3nnnn3C(C)(C)C)CC2)c1C (stereo unspecified),inactive: -0.406%,–
COC(=O)CNC(c1ccccc1)c1cc(Br)ccc1NC(=O)CNC(=O)OCc1ccccc1 (stereo unspecified),inconclusive: -14.1%,–
COc1ccc(NC(=S)NCc2ccco2)cc1,inactive: 10.7%,–
COc1ccc(OC)c(NC(=O)C2CCC(CNc3c(N4CCC(C)CC4)c(=O)c3=O)CC2)c1 (stereo unspecified),–,"inconclusive: 11.2 µM [inhibitor, partial curve]"
COc1ccccc1NS(=O)(=O)c1ccc(Cl)c(NC(=S)NC(=O)C2CCCC2)c1,–,"inconclusive: 35.5 µM [fluorescent, single point]"
O=C(Nc1nnc(CSCc2ccccc2F)s1)c1cccc([N+](=O)[O-])c1,–,"inconclusive: 25.1 µM [falling, single point]"
CCC(=O)N1c2nc(-c3ccco3)nn2C2(CCCCC2)[C@@H]2CCCC[C@@H]21,inconclusive: 17.4% [at 46 µM],–
Clc1ccccc1CSc1nnc(-c2ccncc2)o1,inactive: 6.42%,–
COc1ccc(-n2nnnc2SCC(=O)Nc2ccccc2N2CCOCC2)cc1OC,–,"inconclusive: 22.4 µM [activator, single point]"
CC(=O)N1CCc2cc(N=NC3=C(O)CC(C)(C)CC3=O)ccc21,inconclusive: 9.25% [at 46 µM],–

Compound,"ratio change, negative = inhibition",Potency
Cc1ccc(C(=O)COC(=O)c2cc(=O)[nH]c3ccccc23)cc1,inconclusive: -3.7% [at 46 µM],–
COc1ccccc1NCc1cccn1-c1nnc(N2CCOCC2)s1,inconclusive: 1.27% [at 46 µM],–
CC(=O)[C@@]1(O)CC[C@H]2[C@H]3C[C@@H](C)C4=CC(=O)C=C[C@]4(C)[C@@]3(F)[C@@H](O)C[C@]21C,inconclusive: 10.2%,–
COc1ccccc1NS(=O)(=O)c1cc(NC(=O)c2sccc2C)ccc1N1CCCC1,inactive: -21.4% [at 46 µM],–
Oc1ccccc1NCC(O)Cn1ccc2ccccc21 (stereo unspecified),inactive: 9.51%,–
CCCc1cc(=O)[nH]c(=S)[nH]1,inconclusive: -10.9%,–
CCOC(=O)n1c(=O)n(C)c2ccc(Cl)cc21,–,"inconclusive: 2.24 µM [inhibitor, partial curve]"
CCOc1ccc(C(=O)NCCc2sc3nc(-c4ccc(Cl)cc4)nn3c2C)cc1OCC,inconclusive: -3.04% [at 46 µM],–
CCOC(=O)c1ccccc1NC(=O)c1ccc(NS(C)(=O)=O)cc1,inactive: -10.4%,–
O=S(=O)(c1ccccc1)c1cc(O)ccc1O,inconclusive: 42.6% [at 46 µM],–
Cn1c(CN2CCN(CC#N)CC2)c(C#N)c2ccccc21,inactive: 2.94%,–
CCCCC(=O)Nc1ccc(C(=O)N(CC)c2ccccc2C)cc1,inconclusive: -23% [at 46 µM],–
O=C1CC(Sc2cccs2)C(=O)N1c1ccccc1 (stereo unspecified),inactive: 15.1% [at 46 µM],–
Cc1cc(F)ccc1NCc1cc2c(cc1[N+](=O)[O-])OCO2,inactive: 14.6%,–
COc1ccccc1NC(=S)NC1CCC(CC2CCC(NC(=S)Nc3ccccc3OC)CC2)CC1 (stereo unspecified),–,"inconclusive: 10 µM [fluorescent, partial curve, poor fit]"
O=C(O)c1cc(C2CC2)nn1-c1ccccc1,inactive: 13.2%,–
N#C/C(=C/c1ccc(Br)o1)C(N)=O,–,"inconclusive: 15.8 µM [falling, partial curve]"
O=C(CCCCCNc1nc(=S)[nH]c2ccccc12)NCCC1=CCCCC1,inactive: 27.5% [at 46 µM],–
C/C(N)=C(/C#N)C(=O)CSc1nc2ccccc2c(=O)n1Cc1ccc(F)cc1,inactive: 17.4% [at 46 µM],–
CC(=O)Nc1ccc(C(=O)Nc2ccc(S(=O)(=O)N3CCCC3)cc2)cc1,inactive: 17.4%,–

# Whole records, looked up by structure.
# `CC(=O)N1CCc2cc(N=NC3=C(O)CC(C)(C)CC3=O)ccc21` as listed: ratio change, negative = inhibition: inconclusive: 9.25% [at 46 µM]
# `O=C(O)c1cc(C2CC2)nn1-c1ccccc1` as listed: ratio change, negative = inhibition: inactive: 13.2%
